According to the supplement of paper PMC3682954:
Counter-ions that a name gives are not always drawn. ± gives the standard deviation of the averaged measurements. This is one part of the list. Most values come without repeats; read them as rough.

Test system: RAW 264.7
Assay: HMGB1-induced TNF-alpha production relative to HMGB1-stimulated control; higher = more TNF-alpha secretion (less inhibition)
Details: stimulus: HMGB1 5 ug/ml, 18 h
[1] = compound concentration: 1 ug/ml

SMILES	HMGB1-induced TNF-alpha production (compound concentration: 3 uM)	HMGB1-induced TNF-alpha production [1]
CC[N+](CC)(CC)CC(=O)Nc1c(C)cccc1C [Lidocaine N-ethyl bromide quaternary salt]	107%	
COc1cc(-c2ccc(=O)[nH]n2)ccc1OC(F)F [Zardaverine]	80.5 ± 8.1%	
Nc1nc(OCc2ccccc2)c2nc[nH]c2n1 [O6-benzylguanine]	65.2%	
CC1=C(/C=C/C(C)=C/C=C/C(C)=C\C(=O)O)C(C)(C)CCC1 [Isotretinoin]	55.8%	
CC1=C(/C=C/C(C)=C/C=C/C(C)=C\C(=O)O)C(C)(C)CCC1 [13-cis-retinoic acid]	120%	
CC1=C(/C=C/C(C)=C/C=C/C(C)=C\C(=O)O)C(C)(C)CCC1	41.4%	
CC/C(=C(/CC)c1ccc(O)cc1)c1ccc(O)cc1 [Diethylstilbestrol]	91.6 ± 17%	
CC/C(=C(/CC)c1ccc(O)cc1)c1ccc(O)cc1	87.4%	
CC(C)(Sc1ccc(CCN(CCCCC2CCCCC2)C(=O)NC2CCCCC2)cc1)C(=O)O	101%	
NC1C=CC=C(C(=O)O)C1 (centres undefined) [Gabaculine hydrochloride]	84.3%	
CSc1ccc2c(c1)N(CCC1CCCCN1C)c1ccccc1S2 (centres undefined) [Thioridazine]	93.6%	
CSc1ccc2c(c1)N(CCC1CCCCN1C)c1ccccc1S2 (centres undefined) [Thioridazine hydrochloride]	91 ± 27%	
CSc1ccc2c(c1)N(CCC1CCCCN1C)c1ccccc1S2 (centres undefined)	87.7%	
NC(N)=Nc1nc(CSCC/C(N)=N/S(N)(=O)=O)cs1	106 ± 12%	
NC(N)=Nc1nc(CSCC/C(N)=N/S(N)(=O)=O)cs1 [Famotidine]	78.8 ± 5.9%	
Cc1cc(=O)oc2ccc(O)cc12 [6-Hydroxy-4-methyl-2-benzopyrone]		60.8%
Cc1cc(-c2ccccc2)nnc1NCCN1CCOCC1 [Minaprine dihydrochloride]	71.1%	
Cc1cc(-c2ccccc2)nnc1NCCN1CCOCC1	96.1%	
Nc1ccc(CCNc2ncnc3c2ncn3C2OC(CO)C(O)C2O)cc1 (centres undefined) [N6-2-(4-Aminophenyl)ethyladenosine]	87.3%	
COc1cc(-c2cc(=O)c3c(O)c(OC)c(OC4OC(COC5OC(C)C(O)C(O)C5O)C(O)C(O)C4O)cc3o2)ccc1O (centres undefined) [Demethoxycentaureidin 7-O-rutinoside]		78.4%
CN(C)[C@@H]1C(O)=C(C(N)=O)C(=O)[C@@]2(O)C(O)=C3C(=O)c4c(O)cccc4[C@@](C)(O)[C@H]3[C@H](O)[C@@H]12	93.3%	
CN(C)[C@@H]1C(O)=C(C(N)=O)C(=O)[C@@]2(O)C(O)=C3C(=O)c4c(O)cccc4[C@@](C)(O)[C@H]3[C@H](O)[C@@H]12 [Oxytetracycline dihydrate]	70.2%	
CN(C)[C@@H]1C(O)=C(C(N)=O)C(=O)[C@@]2(O)C(O)=C3C(=O)c4c(O)cccc4[C@@](C)(O)[C@H]3[C@H](O)[C@@H]12 [Oxytetracycline hydrochloride]		67.1%
OC(CN1CCN(c2cccc(Cl)c2)CC1)C(c1ccccc1)c1ccccc1 (centres undefined)	69.7%	
C#CCn1c(=O)c2c(ncn2C)n(C)c1=O [3,7-Dimethyl-1-propargylxanthine]	84%	

SMILES	HMGB1-induced TNF-alpha production (compound concentration: 3 uM)	HMGB1-induced TNF-alpha production [1]
CC(=O)OCC(=O)[C@H]1CC[C@H]2[C@@H]3CCC4=CC(=O)CC[C@]4(C)[C@H]3CC[C@]12C [deoxycorticosterone acetate]		57%
CC(=O)OCC(=O)[C@H]1CC[C@H]2[C@@H]3CCC4=CC(=O)CC[C@]4(C)[C@H]3CC[C@]12C	59%	
N#C/C(=C\c1ccc(O)c(O)c1)C(=O)NCc1ccccc1 [Tyrphostin AG 490]	121%	
N[C@@H](Cc1ccc(Cl)cc1)C(=O)O [L-4-Chlorophenylalanine]		73.3%
N=C(N)NCCN1CCCCCCC1	88.3%	
N=C(N)NCCN1CCCCCCC1 [Guanethidine sulfate]	93.2%	
C#C[C@]1(O)CC[C@H]2[C@@H]3CCC4=CC(=O)CC[C@@H]4[C@H]3CC[C@@]21CC [Norgestrel-(-)-D]	90.6%	
C#C[C@]1(O)CC[C@H]2[C@@H]3CCC4=CC(=O)CC[C@@H]4[C@H]3CC[C@@]21CC [Levonorgestrel]	104%	
C#C[C@]1(O)CC[C@H]2[C@@H]3CCC4=CC(=O)CC[C@@H]4[C@H]3CC[C@@]21CC	107%	
CC(CN(C)C)CN1c2ccccc2Sc2ccccc21 (centres undefined) [Trimeprazine tartrate]	113%	
CC(CN(C)C)CN1c2ccccc2Sc2ccccc21 (centres undefined)	82.6%	
CC1(C)[C@@H](OC(=O)CCC(=O)O)CC[C@]2(C)[C@H]3C(=O)C=C4[C@@H]5C[C@@](C)(C(=O)O)CC[C@]5(C)CC[C@@]4(C)[C@]3(C)CC[C@@H]12 [Carbenoxolone disodium salt]	95.1%	
CC1(C)[C@@H](OC(=O)CCC(=O)O)CC[C@]2(C)[C@H]3C(=O)C=C4[C@@H]5C[C@@](C)(C(=O)O)CC[C@]5(C)CC[C@@]4(C)[C@]3(C)CC[C@@H]12	75.8%	
CC(=O)O[C@H]1CC[C@@]2(C)C(=CC[C@H]3[C@@H]4CC[C@H](C(C)=O)[C@@]4(C)CC[C@@H]32)C1 [Pregnenolone acetate]		63.8%
C=CCOC(Cn1ccnc1)c1ccc(Cl)cc1Cl (centres undefined) [Enilconazole]	95.8%	
C=CCOC(Cn1ccnc1)c1ccc(Cl)cc1Cl (centres undefined)	87.2%	
COc1ccc2c(=O)cc(-c3ccccc3)oc2c1O		46.2%
O=C(/C=C/c1ccc(O)c(O)c1)O[C@@H]1C[C@](O)(C(=O)O)C[C@@H](O)[C@H]1O [Chlorogenic Acid]		57.8%
CN(C)CCC(c1ccc(Br)cc1)c1ccccn1 (single isomer, unassigned; (+)) [(+)-Brompheniramine maleate]	101%	
CC[C@@H](CO)NCCN[C@@H](CC)CO	84.5%	
CC[C@@H](CO)NCCN[C@@H](CC)CO [Ethambutol dihydrochloride]	77.1%	
CC(CN(C)C)C(C)(O)Cc1ccc(Cl)cc1 (centres undefined) [Clobutinol hydrochloride]	56.3%	
O=c1cc(-c2ccccc2)oc2c1ccc1ccccc12 [7,8-Benzoflavone; alpha-Naphthoflavone]		54.7%
C[C@]1(Cn2ccnn2)[C@H](C(=O)O)N2C(=O)C[C@H]2S1(=O)=O [Tazobactam]	87%	

Part of the list above, reformatted:
SMILES,HMGB1-induced TNF-alpha production (compound concentration: 3 uM),HMGB1-induced TNF-alpha production [1]
CC(=O)OCC(=O)[C@H]1CC[C@H]2[C@@H]3CCC4=CC(=O)CC[C@]4(C)[C@H]3CC[C@]12C [deoxycorticosterone acetate],,57%
CC(=O)OCC(=O)[C@H]1CC[C@H]2[C@@H]3CCC4=CC(=O)CC[C@]4(C)[C@H]3CC[C@]12C,59%,
N#C/C(=C\c1ccc(O)c(O)c1)C(=O)NCc1ccccc1 [Tyrphostin AG 490],121%,
N[C@@H](Cc1ccc(Cl)cc1)C(=O)O [L-4-Chlorophenylalanine],,73.3%
